According to patent US6768043B2, “Das5, a P450 protein involved in the brassinosteroid biosynthesis pathway in plants” (The Salk Institute for Biological Studies, priority 2001, dated 2004):

Assay: Endogenous levels of brassinosteroid pathway intermediates in rosette leaves of transgenic/mutant Arabidopsis (HPLC purification, GC-MS selected ion analysis)
Set-up: species or system Arabidopsis thaliana
Conditions: short day, 5 weeks

**Q.** Which content (Das5-D/WT Arabidopsis) does the source give for `CC(C)[C@H](C)[C@@H](O)[C@H](O)[C@@H](C)[C@H]1CC[C@H]2[C@@H]3CC[C@H]4C[C@H](O)[C@H](O)C[C@]4(C)[C@H]3CC[C@]12C` [6-deoxocastasterone] here?
**A.** The content was 15.2 ng/g fw.

**Q.** What about the content (WT Arabidopsis) of the same molecule?
**A.** The content was 2.31 ng/g fw.

**Q.** And the content (das1-D/WT Arabidopsis)?
**A.** The content was 11.2 ng/g fw.

**Q.** What about the content (das1-D/det2 Arabidopsis) of the same molecule?
**A.** The content was 0.06 ng/g fw.

**Q.** And the content (das5-D/det2 Arabidopsis)?
**A.** The content was 0.09 ng/g fw.

**Q.** What about the content (det2 mutant Arabidopsis) of the same molecule?
**A.** Its content is 0.01 ng/g fw.

**Q.** For `CC(C)[C@H](C)C[C@H](O)[C@@H](C)[C@H]1CC[C@H]2[C@@H]3CC[C@H]4C[C@@H](O)CC[C@]4(C)[C@H]3CC[C@]12C` [6-deoxocathasterone], which content (Das5-D/WT Arabidopsis) is on record?
**A.** The content was 32.0 ng/g fw.

**Q.** What about the content (WT Arabidopsis) of the same molecule?
**A.** The content was 0.79 ng/g fw.

**Q.** And the content (das1-D/WT Arabidopsis)?
**A.** The content was 21.1 ng/g fw.

**Q.** What about the content (das1-D/det2 Arabidopsis) of the same molecule?
**A.** Its content is 0.08 ng/g fw.

**Q.** What about the content (das5-D/det2 Arabidopsis) of the same molecule?
**A.** The content was 0.95 ng/g fw.

**Q.** What about the content (det2 mutant Arabidopsis) of the same molecule?
**A.** Its content is 0.23 ng/g fw.

**Q.** Which results are given for `CC(C)[C@H](C)[C@@H](O)[C@H](O)[C@@H](C)[C@H]1CC[C@H]2[C@@H]3CC[C@H]4C[C@@H](O)CC[C@]4(C)[C@H]3CC[C@]12C` [6-deoxoteasterone]?
**A.** content (Das5-D/WT Arabidopsis): 1.00 ng/g fw; content (WT Arabidopsis): 0.23 ng/g fw; content (das1-D/WT Arabidopsis): 0.57 ng/g fw; content (das1-D/det2 Arabidopsis): 0.20 ng/g fw; content (das5-D/det2 Arabidopsis): 0.64 ng/g fw; content (det2 mutant Arabidopsis): 0.28 ng/g fw

**Q.** With `CC(C)[C@H](C)[C@@H](O)[C@H](O)[C@@H](C)[C@H]1CC[C@H]2[C@@H]3CC[C@H]4C[C@H](O)CC[C@]4(C)[C@H]3CC[C@]12C` [6-deoxotyphasterol] as the molecule, how does the content (Das5-D/WT Arabidopsis) read?
**A.** The content was 8.43 ng/g fw.

**Q.** And the content (WT Arabidopsis)?
**A.** The content was 1.59 ng/g fw.

**Q.** And the content (das1-D/WT Arabidopsis)?
**A.** Its content is 4.61 ng/g fw.

**Q.** And the content (das1-D/det2 Arabidopsis)?
**A.** The content was 0.10 ng/g fw.

**Q.** What about the content (das5-D/det2 Arabidopsis) of the same molecule?
**A.** The content was 0.15 ng/g fw.

**Q.** What about the content (det2 mutant Arabidopsis) of the same molecule?
**A.** Its content is 0.07 ng/g fw.

**Q.** With `CC(C)[C@H](C)CC[C@@H](C)[C@H]1CC[C@H]2[C@@H]3CC(=O)[C@H]4C[C@@H](O)CC[C@]4(C)[C@H]3CC[C@]12C` [6-oxocampestanol] as the molecule, how does the content (Das5-D/WT Arabidopsis) read?
**A.** Its content is 33 ng/g fw.

**Q.** And the content (WT Arabidopsis)?
**A.** Its content is 59 ng/g fw.

**Q.** What about the content (das1-D/WT Arabidopsis) of the same molecule?
**A.** Its content is 24 ng/g fw.

**Q.** And the content (das1-D/det2 Arabidopsis)?
**A.** Its content is 17 ng/g fw.

**Q.** What about the content (das5-D/det2 Arabidopsis) of the same molecule?
**A.** Its content is 16 ng/g fw.

**Q.** What about the content (det2 mutant Arabidopsis) of the same molecule?
**A.** Its content is 24 ng/g fw.

**Q.** For `C=C(CC[C@@H](C)[C@H]1CC[C@H]2[C@@H]3CC=C4C[C@@H](O)CC[C@]4(C)[C@H]3CC[C@]12C)C(C)C` [24-methylenecholesterol], which content (Das5-D/WT Arabidopsis) is on record?
**A.** Its content is 1400 ng/g fw.

**Q.** What about the content (WT Arabidopsis) of the same molecule?
**A.** Its content is 1880 ng/g fw.

**Q.** And the content (das1-D/WT Arabidopsis)?
**A.** The content was 2340 ng/g fw.

**Q.** And the content (das1-D/det2 Arabidopsis)?
**A.** The content was 480 ng/g fw.

**Q.** And the content (das5-D/det2 Arabidopsis)?
**A.** Its content is 360 ng/g fw.

**Q.** What about the content (det2 mutant Arabidopsis) of the same molecule?
**A.** The content was 480 ng/g fw.

**Q.** With `CC(C)[C@H](C)CC[C@@H](C)[C@H]1CC[C@H]2[C@@H]3CC=C4C[C@@H](O)CC[C@]4(C)[C@H]3CC[C@]12C` [campesterol] as the molecule, how does the content (Das5-D/WT Arabidopsis) read?
**A.** Its content is 24900 ng/g fw.

**Q.** What about the content (WT Arabidopsis) of the same molecule?
**A.** The content was 30000 ng/g fw.

**Q.** What about the content (das1-D/WT Arabidopsis) of the same molecule?
**A.** The content was 13300 ng/g fw.

**Q.** And the content (das1-D/det2 Arabidopsis)?
**A.** The content was 9400 ng/g fw.

**Q.** What about the content (das5-D/det2 Arabidopsis) of the same molecule?
**A.** Its content is 9900 ng/g fw.

**Q.** What about the content (det2 mutant Arabidopsis) of the same molecule?
**A.** The content was 9900 ng/g fw.

**Q.** Which results are given for `CC(C)[C@H](C)[C@@H](O)[C@H](O)[C@@H](C)[C@H]1CC[C@H]2[C@@H]3CC(=O)[C@H]4C[C@H](O)[C@H](O)C[C@]4(C)[C@H]3CC[C@]12C` [castasterone]?
**A.** content (Das5-D/WT Arabidopsis): 0.57 ng/g fw; content (WT Arabidopsis): 0.24 ng/g fw; content (das1-D/WT Arabidopsis): 0.14 ng/g fw; content (das1-D/det2 Arabidopsis): 0.11 ng/g fw; content (das5-D/det2 Arabidopsis): 0.17 ng/g fw; content (det2 mutant Arabidopsis): 0.04 ng/g fw

**Q.** Which results are given for `CC(C)[C@H](C)C[C@H](O)[C@@H](C)[C@H]1CC[C@H]2[C@@H]3CC(=O)[C@H]4C[C@@H](O)CC[C@]4(C)[C@H]3CC[C@]12C` [cathasterone]?
**A.** content (Das5-D/WT Arabidopsis): 0.15 ng/g fw; content (das1-D/det2 Arabidopsis): 0.23 ng/g fw; content (das5-D/det2 Arabidopsis): 0.59 ng/g fw

**Q.** Which results are given for `CC(C)[C@H](C)[C@@H](O)[C@H](O)[C@@H](C)[C@H]1CC[C@H]2[C@@H]3CC(=O)[C@H]4C[C@H](O)CC[C@]4(C)[C@H]3CC[C@]12C` [typhasterol]?
**A.** content (Das5-D/WT Arabidopsis): 0.19 ng/g fw; content (WT Arabidopsis): 0.03 ng/g fw; content (das1-D/WT Arabidopsis): 0.03 ng/g fw; content (das1-D/det2 Arabidopsis): 0.53 ng/g fw; content (das5-D/det2 Arabidopsis): 0.80 ng/g fw; content (det2 mutant Arabidopsis): 0.39 ng/g fw
